Paper PMC5001722

How the values were obtained:
Assay in all cases: co-IP; 293T cells co-transfected, lysates at 48 h in co-IP buffer (50 mM Tris-Cl pH 7.4, 50 mM NaF, 5 mM sodium phosphate, 0.1% Triton X-100); antibody to the tag 16 h at 4°C, protein A- and G-Sepharose, 7 washes; immunoblot
[1] = target: myc-ORF RL1 (HCMV)
[2] = target: myc-ORF UL19 (HCMV)
[3] = target: myc-ORF UL30 (HCMV)
[4] = target: myc-ORF UL21A (HCMV)

Measured: binding

B1: HA-UBE1L (enzyme, UniProt P41226 1-1012)
chain: MDALDASKLLDEELYSRQLYVLGSPAMQRIQGARVLVSGLQGLGAEVAKNLVLMGVGSLTLHDPHPTCWSDLAAQFLLSEQDLERSRAEASQELLAQLNRAVQVVVHTGDITEDLLLDFQVVVLTAAKLEEQLKVGTLCHKHGVCFLAADTRGLVGQLFCDFGEDFTVQDPTEAEPLTAAIQHISQGSPGILTLRKGANTHYFRDGDLVTFSGIEGMVELNDCDPRSIHVREDGSLEIGDTTTFSRYLRGGAITEVKRPKTVRHKSLDTALLQPHVVAQSSQEVHHAHCLHQAFCALHKFQHLHGRPPQPWDPVDAETVVGLARDLEPLKRTEEEPLEEPLDEALVRTVALSSAGVLSPMVAMLGAVAAQEVLKAISRKFMPLDQWLYFDALDCLPEDGELLPSPEDCALRGSRYDGQIAVFGAGFQEKLRRQHYLLVGAGAIGCELLKVFALVGLGAGNSGGLTVVDMDHIERSNLSRQFLFRSQDVGRPKAEVAAAAARGLNPDLQVIPLTYPLDPTTEHIYGDNFFSRVDGVAAALDSFQARRYVAARCTHYLKPLLEAGTSGTWGSATVFMPHVTEAYRAPASAAASEDAPYPVCTVRYFPSTAEHTLQWARHEFEELFRLSAETINHHQQAHTSLADMDEPQTLTLLKPVLGVLRVRPQNWQDCVAWALGHWKLCFHYGIKQLLRHFPPNKVLEDGTPFWSGPKQCPQPLEFDTNQDTHLLYVLAAANLYAQMHGLPGSQDWTALRELLKLLPQPDPQQMAPIFASNLELASASAEFGPEQQKELNKALEVWSVGPPLKPLMFEKDDDSNFHVDFVVAAASLRCQNYGIPPVNRAQSKRIVGQIIPAIATTTAAVAGLLGLELYKVVSGPRPRSAFRHSYLHLAENYLIRYMPFAPAIQTFHHLKWTSWDRLKVPAGQPERTLESLLAHLQEQHGLRVRILLHGSALLYAAGWSPEKQAQHLPLRVTELVQQLTGQAPAPGQRVLVLELSCEGDDEDTAFPPLHYEL
binds: all assays above

No constants are given. Whether binding was seen depends on the method and setting. Binding seen in cells or lysates may run through a third protein. A result given as binding can be weak or reduced; the word gives no strength. Tags and fused reporters may be left off the sequences shown.
